Some of the results follow. Values are worked out from sequencing counts and are noisy.

T1: Homer1 EVH1 domain
T1 chain: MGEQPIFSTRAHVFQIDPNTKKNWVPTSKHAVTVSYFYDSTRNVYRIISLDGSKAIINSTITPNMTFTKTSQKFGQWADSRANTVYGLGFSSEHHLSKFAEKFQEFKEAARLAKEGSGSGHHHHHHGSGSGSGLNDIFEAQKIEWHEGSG

This assay deals with T1, Homer1 EVH1 domain. Nature of the assay: enrichment score (AUC of log2 frequency ratio across FACS sorting rounds) (log2 AUC); higher = stronger enrichment for Homer1 EVH1 binding.
As for IQDNRYILCKTACVAATFFIHFFYLSVFFWMLTLVL, the enrichment score is 3.36. With PYLPLPEAAPAQAQADSLTVYLVVALASVSSLFLFS, the enrichment score came to 2.86.

For LLWLHTSFAFLYLLLTVYSMRRHTSKMRYKEDDLVK, the enrichment score was -0.904.

For the molecule KVFSTCASHLTALSIFYGTIIFIYLQPNSSQSVDTD, the enrichment score turned out to be 2.21. Under NIPAISELLHTPAHVLPSAAFLFSMFVNSLLLSKET stands 3.36; under QLLPLAVPIQRPQVPPEGSGPPGQKHQEVFLVNSLG, 0.472; under PATLNPIIYGMRTKQLRARIWSYLMHVLFDHSNLGS, -3.67.

With MITGNMALIQVQATVVGFLASIAAVVFGWIPDGHFS, the enrichment score worked out at 2.98. Under ISLTVIEKVQIAAIVLGSLFLVASISWLIWSSLSPS stands 0.159; under VASWIMGVMHSMSQVIFALTLPFCGPYEVDSFFCDL, 1.31; under PEPGQDSVGPEPSEVRLLPGGGDPDITYGSPWLAFP, 3.03.

On to MVLGSVLLLCILFTCFCVTAKRTVKKCFPEDIAQQN, for which the enrichment score came out at 0.357.

With MKSMMPTDEQFAAIIVLGFATLSILFAFILQYFLMK, the enrichment score was found to be 2.64.

Take MANTTGEPEEVSGALSPPSASAYVKLVLLGLIMCVY: the enrichment score came out at 3.31.

PMLRGRFQRPKPNLSRAGKKSVLSQGKTDSESKNSH: the enrichment score came out at 0.0131.

Turning to YRGSFQGFYPNSTYFYLFSLELFCLYLSFICKNSIR, the enrichment score was determined as 0.967. The figure for FPVALGLGVAVGAEAAAIMVNLLQIVRDHWVHVLVP is 1.26.

VGGAGAGLHPVVYPCTALLLLCLFATIITYILNHSS: the enrichment score stood at 3.33.

On to DLVLASSTAPKALAVLLVHAHEIGYIVCLIQMFFIH, for which the enrichment score is 0.331. Under SFIPDGFYIYYPMLVVILCIATYFSLGTRCLNLLGF stands 4; under SFKELGLLLMYLAVGIFVFSALGYTMEQSHPETLFK, 1.58. For LVAFFLLIQACPWTYYVYGLLPLPIWYAVLREFQVI, the enrichment score is -0.986. Under SNWWIQVTSLRIFVWLLLLSFMQVIAIVLYLMMPIV stands 2.06. Under LFCVGPLPCTLLLTLGYVLYASAMTLLTERGKLHQL stands 0.334; under AVFFATYLTLACCSGPRRHFPWNLILLTVFTLSMAY, 0.149. The figure for TVDYSDNLTRLCLGLSAVFLCGAAANAIRVYLMQTS is 2.42. For the molecule HVAVIINYLGHCISLVALLVAFVLFLRLRSIRCLRN, the enrichment score turned out to be 2.56.

In the case of ALNPLNILGINFLGRRLSLSITMGCTALFFLLLNIC, the enrichment score is 1.27. Under LLSGERLDTWICSLLGSLMVGLSGVFPLLVIPLEMG stands -2.54; under EFQAPFGMEAEYAHPLETLILGTGFFIGIVLLCDHV, 2.16. The figure for RGSLIALCISNLFFMLPWQFAQFVLLTQIASLFAVY is 2.72e-05. Under REVARDWLRVGSVLDKLLFHIYLLAVLAYSITLVML stands 0.747; under TQDRFSPDLLGLQASSALAWLTLEVLAILLSLYLVN, 4.27; under PGNKENNSNMVGTVLMLFLITLLYAAINFSCWSAVK, 3.86. In the case of IGVDGGKNISYAGCLSQLFIFTFLGATECFLLAAMA, the enrichment score is 2.23.

Consider TSGPEAILPRRLPKVFKRQRTTSELFSVFPVLLFLN, for which the enrichment score worked out at 0.697.

With NFVQYACFGLFGIIALQTIAYSILWDLKFLMRNLAL, the enrichment score is 1.93.

Take FYNPVVPEAQKREMGAGLYVGWAAAALQLLGGALLC: the enrichment score is 2.93. Under MKAMPWNWTCLLSHLLMVGMGSSTLLTRQPAPLSQK stands -1.23.

For the molecule FQTLEEVPDYVKKATPFFISLMLLELVVSCILKGKP, the enrichment score came out at 3.24. Under GDEPLPYQPTFSDDWQLPEPSSQAPLGYQDPVSLRP stands 1.6; under ILGTAVALFLGMCVVHNFKGTQGSPSKPKPEDPRGV, 1.13; under MWLPRFSSKTVTVLLLAQTTCLLLFIISRPGPSSPA, 2.37.

As for MRPLPGALGVAAAAALWLLLLLLPRTRADEHEHTYQ, the enrichment score is 3.38.
